Measurements taken from US20220332795A1.
Where a chain is given by its changes, count along the chain named. No constants are given. Whether binding was seen depends on the method and setting. Some results given as binding are weak or reduced against the parent protein; the word gives no strength.

Chains of the proteins cited; added tags and fusions are not shown. Lines headed by an entry give the natural chain unless they say otherwise; changes in a name come on top. A line that says so, or that is headed by a name, gives the form on record, which may keep a tag or linker.
human CD71 (transferrin receptor 1) extracellular domain, recombinant, biotinylated (P02786, form named): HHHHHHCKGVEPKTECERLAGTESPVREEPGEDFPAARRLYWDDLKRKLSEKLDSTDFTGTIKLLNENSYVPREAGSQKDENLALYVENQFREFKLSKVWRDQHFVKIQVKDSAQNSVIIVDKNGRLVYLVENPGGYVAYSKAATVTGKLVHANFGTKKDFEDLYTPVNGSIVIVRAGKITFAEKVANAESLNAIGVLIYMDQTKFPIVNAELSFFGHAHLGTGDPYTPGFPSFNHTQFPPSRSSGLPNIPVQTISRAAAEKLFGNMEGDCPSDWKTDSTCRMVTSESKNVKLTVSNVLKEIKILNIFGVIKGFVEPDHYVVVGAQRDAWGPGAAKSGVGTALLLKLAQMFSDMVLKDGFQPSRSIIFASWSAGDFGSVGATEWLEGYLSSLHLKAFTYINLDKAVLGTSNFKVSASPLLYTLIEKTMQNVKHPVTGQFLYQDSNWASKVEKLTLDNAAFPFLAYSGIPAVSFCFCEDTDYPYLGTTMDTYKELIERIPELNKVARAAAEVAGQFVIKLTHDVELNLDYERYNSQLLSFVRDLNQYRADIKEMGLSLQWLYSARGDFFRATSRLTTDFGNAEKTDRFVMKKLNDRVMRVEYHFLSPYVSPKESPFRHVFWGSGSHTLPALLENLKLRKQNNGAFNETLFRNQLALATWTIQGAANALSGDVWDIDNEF

B1: FN3 domain of SEQ ID NO: 48 (designed binder)
chain: MLPAPKNLVVSRVTEDSARLSWTAPDAAFDSFLIYYEEGYLEYYYSGEAIVLTVPGSERSYDLTGLKPGTEYYVGIVGVKGGGLSGPLSAISTT
B2: FN3 domain of SEQ ID NO: 50 (designed binder)
chain: MSLPAPKNLVVSRVTEDSARLSWTAPDAAFDSFTIHYREFQLSGEAIVLTVPGSERSYDLTGLKPGTEYDVPIEGVKGGPGSRPLSAIFTT
B3: FN3 domain of SEQ ID NO: 51 (designed binder)
chain: MLPAPKNLVVSEVTEDSARLSWQGVARAFDSFLITYREQIFAGEVIVLTVPGSECSYDLTGLKPGTEYPVWIQGVKGGSPSAPLSAEFTT
B4: FN3 domain of SEQ ID NO: 52 (designed binder)
chain: MLPAPKNLVVSRVTEDSARLSWTAPDAAFDSFEIDYDELAIYGEAIVLTVPGSERSYDLTGLKPGTEYGVRIPGVKGGMPSLPLSAIVTT
B5: FN3 domain of SEQ ID NO: 53 (designed binder)
chain: B3 chain with K6E, C55R, F88S
B6: FN3 domain of SEQ ID NO: 54 (designed binder)
chain: MLPAPKNLVVSRVTEDSARLSWTAPDAAFDSFAIAYGEHIVIGEAIVLTVPGSERSYDLTGLKPGTEYMVPIAGVKGGPISLPLSAIFTT
B7: FN3 domain of SEQ ID NO: 55 (designed binder)
chain: MLPAPKNLVVSRVTEDSARLSWTAPDAAFDSFFIPYAEPSPTGEAIVLTVPGSERSYDLTGLKPGTEYSVLIHGVKGGHLSDPLSAIFTT
B8: FN3 domain of SEQ ID NO: 56 (designed binder)
chain: MLPAPKNLVVSRVTEDSARLSWTAPDAAFDSFSIGYVELVLLGEAIVLTVPGSERSYDLTGLKPGTEYDVLIPGVKGGSLSRPLSAIFTT
B9: FN3 domain of SEQ ID NO: 57 (designed binder)
chain: B7 chain with F33A, P39L, P41R, T42N, S69T, H79C
B10: FN3 domain of SEQ ID NO: 59 (designed binder)
chain: MLPAPKNLVVSRVTEDSARLSWTAPDAAFDSFVYNEVHWIGEAIVLTVPGSERSYDLTGLKPGTEYFVGIYGVKGGHWSKPLSAIFTT
B11: FN3 domain of SEQ ID NO: 60 (designed binder)
chain: B4 chain
B12: FN3 domain of SEQ ID NO: 61 (designed binder)
chain: MLPAPKNLVVSRVTEDSARLSWTAPDAAFDSFQIVYSELWIKGEAIVLTVPGSERSYDLTGLKPGTEYQVPIPGVKGGRNSFPLSAIFTT
B13: FN3 domain of SEQ ID NO: 62 (designed binder)
chain: MLPAPKNLVVSRVTEDSARLSWTAPDAAFDSFKIRYTETRSIGEAIVLTVPGSERSYDLTGLKPGTEYCVPIGGVKGGDSSWPLSAISTT
B14: FN3 domain of SEQ ID NO: 63 (designed binder)
chain: MLPAPKNLVVSRVTEDSARLSWTAPDAAFDSFCISYYERMGRGEAIVLTVPGSERSYDLTGLKPGTEYMVYIFGVKGGLNSLPLSAIFTT
B15: FN3 domain of SEQ ID NO: 64 (designed binder)
chain: B7 chain with F33Y, P35V, S40I, T42N, H79R, L80N
B16: FN3 domain of SEQ ID NO: 65 (designed binder)
chain: B7 chain with E15K, F33P, P35A, S40R, T42D, H79L, D82S
B17: FN3 domain of SEQ ID NO: 66 (designed binder)
chain: MLPAPKNLVVSRVTEDSARLSWTAPDAAFDSFTIDYDEPRSPGEAIVLTVPGSERSYDLTGLKPGTEYRVFIWGIKGGDTSFPLSAIFTT
B18: FN3 domain of SEQ ID NO: 67 (designed binder)
chain: MLPAPKNLVVSRVTEDSARLSWTAPDAAFDSFTILYAEQAQFGEAIVLTVPGSERSYDLTGLKPGTEYPITGVKGGTRSGPLSAISTT
B19: FN3 domain of SEQ ID NO: 68 (designed binder)
chain: B7 chain with F33I, P39V, S40R, T42D, F88S
B20: FN3 domain of SEQ ID NO: 70 (designed binder)
chain: B3 chain with E12R, C55R, S79D, P80L, A82N, E87I
B21: FN3 domain of SEQ ID NO: 71 (designed binder)
chain: B8 chain with S33P, G35S, V37L, V40S, L42Y, D69P, L71G, P73A, S79V, L80V
B22: FN3 domain of SEQ ID NO: 72 (designed binder)
chain: MLPAPKNLVVSRVTEDSARLSWTAPDAAFDSFTIGYREWYWYGEAIVLTVPGSERSYDLTGLKPGTEYNVPISGVKGGLDSFPLSAIFTT
B23: FN3 domain of SEQ ID NO: 73 (designed binder)
chain: B3 chain with C55R, F88S
B24: FN3 domain of SEQ ID NO: 74 (designed binder)
chain: B8 chain with G35T, V37L, L39W, V40W, L41N, D69M, L71T, S79M, L80S, R82Y
B25: FN3 domain of SEQ ID NO: 75 (designed binder)
chain: MLPAPKNLVVSRVTEDSARLSWTAPDAAFDSFTISYGEEALIGEAIYLRVPGSERSYDLTGLKPGTEYYVHIEGVKGGSWSQPLAAAFTT
B26: FN3 domain of SEQ ID NO: 76 (designed binder)
chain: B6 chain with A33T, A35E, G37Y, H39N, V41G, M69S, A73V, I80Y, L82H
B27: FN3 domain of SEQ ID NO: 77 (designed binder)
chain: B7 chain with F33P, P35A, S40R, T42D, H79L, D82S
B28: FN3 domain of SEQ ID NO: 78 (designed binder)
chain: MLPAPKNLVVSRVTEDSARLSWTAPDAAFDSFGIGYYEHKRFGEAIQLSVPGSERSYDLTGLKPGTEYEVDIEGVKGGVLSWPLFAEFTT
B29: FN3 domain of SEQ ID NO: 79 (designed binder)
chain: MLPAPKNLVVSRVTEDSARLSWTAPDAAFDSFVIEYTERFWSGEAIVLTVPGSERSYDLTGLKPGTEYSVPIDGVKGGQCSTPLSAIFTT
B30: FN3 domain of SEQ ID NO: 80 (designed binder)
chain: MLPAPKNLVVSRVTEDSARLSWTAPDAAFDSFWIDYEEEGVIGEAIYLHVPGSERSYDLTGLKPGTEYVVKIHGVKGGHPSHPLVAVFTT
B31: FN3 domain of SEQ ID NO: 81 (designed binder)
chain: B3 chain with E12R, R37V, Q39L, I40R, F41H, A42L, V45A, C55R
B32: FN3 domain of SEQ ID NO: 82 (designed binder)
chain: B7 chain with F33L, P39T, T42S, H79D, L80Y, D82S
B33: FN3 domain of SEQ ID NO: 83 (designed binder)
chain: B7 chain with F33P, P35A, S40R, T42D, H79L, D82S, F88S
B34: FN3 domain of SEQ ID NO: 84 (designed binder)
chain: B3 chain with E12R, L33S, T35L, R37L, Q39L, I40T, F41P, A42K, V45A, C55R
B35: FN3 domain of SEQ ID NO: 85 (designed binder)
chain: B7 chain with F33I, P35E, A37F, S40I, T42I, S69A, L71N, H73Y, H79Y, D82H
B36: FN3 domain of SEQ ID NO: 86 (designed binder)
chain: B3 chain
B37: FN3 domain of SEQ ID NO: 87 (designed binder)
chain: B29 chain with V33A, R39F, F40L, W41Y, S69G, D73N, Q79F, C80V, T82P, F88V
B38: FN3 domain of SEQ ID NO: 88 (designed binder)
chain: MLPAPKNLVVSRVTEDSARLSWTAPDAAFDSFPIKYREVLRCGEAIVLTVPGSERSYDLTGLKPGTEYTVPITGVKGGFGSSPLSAIFTT
B39: FN3 domain of SEQ ID NO: 89 (designed binder)
chain: MLPAPENLVVSRVTEDSARLSWTAPDAAFDSFWIEYYEGVIQGEAIVLTVPGSERSYDLTGLKPGTEYFVAIWGVKGGKWSVPLSAIFTT
B40: FN3 domain of SEQ ID NO: 90 (designed binder)
chain: MLPAPKNLVVSRVTEDSARLSWQGVARAFDSFLITYREQIFAGEVIVLTVPGSERSYDLTGLKPGTEYPVWIQGVKGGSPSAEFTT
B41: FN3 domain of SEQ ID NO: 92 (designed binder)
chain: B7 chain

What follows are binders tested against human CD71 (transferrin receptor 1) extracellular domain, recombinant, biotinylated (human) (UniProt P02786) (assay: hit of apical domain panning; heading of the sequence table).

Binder	binding
B1	binds
B2	binds
B3	binds
B4	binds
B5	binds
B6	binds
B7	binds
B8	binds
B9	binds
B10	binds
B11	binds
B12	binds
B13	binds
B14	binds
B15	binds
B16	binds
B17	binds
B18	binds
B19	binds
B20	binds
B21	binds

Binder	binding
B22	binds
B23	binds
B24	binds
B25	binds
B26	binds
B27	binds
B28	binds
B29	binds
B30	binds
B31	binds
B32	binds
B33	binds
B34	binds
B35	binds
B36	binds
B37	binds
B38	binds
B39	binds
B40	binds
B41	binds
